Cleaved PARP in drug-treated melanoma cells

Values as published with doi:10.1371/journal.pone.0140310, rounded.

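Human melanoma cells were exposed to two drugs together for 72 h in 1,536-well plates and read by automated microscopy after fixing and staining. The read-out is the fraction of cleaved-PARP-positive nuclei, in % of that fraction in the DMSO control; 200 means twice the control level of this apoptosis marker. Concentrations were fixed for each drug; these are the higher of two levels. These are primary screening values without error estimates. Basal and induced levels differ widely between cell lines.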
An unselected part of the screen is shown.
An entry leaves out what has no value listed here.

Drug key:
GW0742, 10 µM: Cc1cc(SCc2sc(-c3ccc(C(F)(F)F)c(F)c3)nc2C)ccc1OCC(=O)O
everolimus, 0.1 µM: CO[C@H]1C[C@@H]2CC[C@@H](C)[C@@](O)(O2)C(=O)C(=O)N2CCCC[C@H]2C(=O)O[C@H]([C@H](C)C[C@@H]2CC[C@@H](OCCO)[C@H](OC)C2)CC(=O)[C@H](C)/C=C(\C)[C@@H](O)[C@@H](OC)C(=O)[C@H](C)C[C@H](C)/C=C/C=C/C=C/1C
docetaxel, 0.0005 µM: CC(=O)O[C@@]12CO[C@@H]1C[C@H](O)[C@@]1(C)C(=O)[C@H](O)C3=C(C)[C@@H](OC(=O)[C@H](O)[C@@H](NC(=O)OC(C)(C)C)c4ccccc4)C[C@@](O)([C@@H](OC(=O)c4ccccc4)[C@H]21)C3(C)C
ABT-263, 2 µM: CC1(C)CCC(c2ccc(Cl)cc2)=C(CN2CCN(c3ccc(C(=O)NS(=O)(=O)c4ccc(N[C@H](CCN5CCOCC5)CSc5ccccc5)c(S(=O)(=O)C(F)(F)F)c4)cc3)CC2)C1
T0901317, 7 µM: O=S(=O)(c1ccccc1)N(CC(F)(F)F)c1ccc(C(O)(C(F)(F)F)C(F)(F)F)cc1
PF-562271, 0.4 µM: CN(c1ncccc1CNc1nc(Nc2ccc3c(c2)CC(=O)N3)ncc1C(F)(F)F)S(C)(=O)=O
GSK650394, 0.8 µM: O=C(O)c1ccc(-c2c[nH]c3ncc(-c4ccccc4)cc23)cc1C1CCCC1
TCS401, 8.33 µM: O=C(O)C(=O)Nc1sc2c(c1C(=O)O)CCNC2
CHIR-265, 0.4 µM: Cn1c(Nc2ccc(C(F)(F)F)cc2)nc2cc(Oc3ccnc(-c4ncc(C(F)(F)F)[nH]4)c3)ccc21

For PF-562271 and everolimus the values were MeWo: 46.2; SK-MEL-30: 170; WM1716: 89.9; COLO 792: 117. Results for CHIR-265 and ABT-263 are MeWo: 377; SK-MEL-30: 382; WM1716: 2710; COLO 792: 9650. For everolimus and GSK650394 the values were MeWo: 48.7; SK-MEL-30: 80.8; WM1716: 64.2; COLO 792: 125. TCS401 and T0901317 gave 501mel: 41.5; MeWo: 74.8; SK-MEL-30: 45.8; WM1716: 18.2; COLO 792: 60.5.

everolimus and GW0742 gave 501mel: 47.8; MeWo: 107; SK-MEL-30: 138; WM1716: 44.6; COLO 792: 121. For CHIR-265 and GW0742 the values were 501mel: 357; MeWo: 98.1; SK-MEL-30: 71.8; WM1716: 138; COLO 792: 1060. Results for GW0742 and GSK650394 are 501mel: 140; MeWo: 49.9; SK-MEL-30: 71.0; WM1716: 44.6; COLO 792: 80.0. With docetaxel and ABT-263 the screen read MeWo: 2980; SK-MEL-30: 2270; WM1716: 4000; COLO 792: 7740.

For GSK650394 and CHIR-265 the values were MeWo: 162; SK-MEL-30: 100; WM1716: 215; COLO 792: 608. For GSK650394 and docetaxel the values were MeWo: 640; SK-MEL-30: 516; WM1716: 1500; COLO 792: 1120. Results for GSK650394 and ABT-263 are MeWo: 242; SK-MEL-30: 748; WM1716: 2310; COLO 792: 3640. For T0901317 and CHIR-265 the values were 501mel: 135; MeWo: 56.9; SK-MEL-30: 185; WM1716: 67.1; COLO 792: 830.

With T0901317 and docetaxel the screen read 501mel: 92.9; MeWo: 515; SK-MEL-30: 618; WM1716: 299; COLO 792: 645. For GSK650394 and PF-562271 the values were MeWo: 143; SK-MEL-30: 75.9; WM1716: 47.2; COLO 792: 108. docetaxel and TCS401 gave 501mel: 226; MeWo: 321; SK-MEL-30: 439; WM1716: 697; COLO 792: 582. With GSK650394 and TCS401 the screen read 501mel: 104; MeWo: 77.5; SK-MEL-30: 116; WM1716: 11.7; COLO 792: 110.

With CHIR-265 and TCS401 the screen read 501mel: 129; MeWo: 81.7; SK-MEL-30: 116; WM1716: 104; COLO 792: 1150. With docetaxel and PF-562271 the screen read MeWo: 802; SK-MEL-30: 638; WM1716: 822; COLO 792: 821. For PF-562271 and GW0742 the values were 501mel: 144; MeWo: 162; SK-MEL-30: 115; WM1716: 175; COLO 792: 136. For docetaxel and everolimus the values were MeWo: 744; SK-MEL-30: 787; WM1716: 675; COLO 792: 1160.

With T0901317 and everolimus the screen read 501mel: 401; MeWo: 73.4; SK-MEL-30: 157; WM1716: 27.0; COLO 792: 238. Results for TCS401 and PF-562271 are 501mel: 382; MeWo: 79.7; SK-MEL-30: 92.8; WM1716: 185; COLO 792: 98.0. For docetaxel and GW0742 the values were 501mel: 396; MeWo: 386; SK-MEL-30: 490; WM1716: 1020; COLO 792: 1190. PF-562271 and ABT-263 gave MeWo: 120; SK-MEL-30: 219; WM1716: 1530; COLO 792: 3810.

For everolimus and ABT-263 the values were MeWo: 147; SK-MEL-30: 327; WM1716: 507; COLO 792: 1840. GW0742 and TCS401 gave 501mel: 106; MeWo: 74.0; SK-MEL-30: 54.4; WM1716: 44.2; COLO 792: 91.6. For ABT-263 and TCS401 the values were 501mel: 97.9; MeWo: 525; SK-MEL-30: 156; WM1716: 749; COLO 792: 985. Results for T0901317 and ABT-263 are 501mel: 143; MeWo: 188; SK-MEL-30: 272; WM1716: 2590; COLO 792: 2800.

Results for ABT-263 and GW0742 are 501mel: 111; MeWo: 309; SK-MEL-30: 209; WM1716: 663; COLO 792: 2140. Results for CHIR-265 and docetaxel are MeWo: 1690; SK-MEL-30: 695; WM1716: 2440; COLO 792: 1980. For GW0742 and T0901317 the values were 501mel: 173; MeWo: 55.3; SK-MEL-30: 52.7; WM1716: 16.4; COLO 792: 28.6. Results for everolimus and CHIR-265 are MeWo: 178; SK-MEL-30: 157; WM1716: 113; COLO 792: 2860.

CHIR-265 and PF-562271 gave MeWo: 206; SK-MEL-30: 299; WM1716: 143; COLO 792: 3840.

For reference, 2 entries once more:

{"combination": "docetaxel and GW0742", "501mel": 396, "MeWo": 386, "SK-MEL-30": 490, "WM1716": 1020, "COLO 792": 1190}
{"combination": "CHIR-265 and GW0742", "501mel": 357, "MeWo": 98.1, "SK-MEL-30": 71.8, "WM1716": 138, "COLO 792": 1060}